Experimental data published in patent US20130012436A1 (Bristol-Myers Squibb, published 2013).
No constants are given. Whether binding was seen depends on the method and setting. Some binding calls cover weakened binding; strength is not graded here.

Chains of the proteins cited; added tags and fusions are not shown. Lines headed by an entry give the natural chain unless they say otherwise; changes in a name come on top. Residues count along the entry.
UniProt P02768: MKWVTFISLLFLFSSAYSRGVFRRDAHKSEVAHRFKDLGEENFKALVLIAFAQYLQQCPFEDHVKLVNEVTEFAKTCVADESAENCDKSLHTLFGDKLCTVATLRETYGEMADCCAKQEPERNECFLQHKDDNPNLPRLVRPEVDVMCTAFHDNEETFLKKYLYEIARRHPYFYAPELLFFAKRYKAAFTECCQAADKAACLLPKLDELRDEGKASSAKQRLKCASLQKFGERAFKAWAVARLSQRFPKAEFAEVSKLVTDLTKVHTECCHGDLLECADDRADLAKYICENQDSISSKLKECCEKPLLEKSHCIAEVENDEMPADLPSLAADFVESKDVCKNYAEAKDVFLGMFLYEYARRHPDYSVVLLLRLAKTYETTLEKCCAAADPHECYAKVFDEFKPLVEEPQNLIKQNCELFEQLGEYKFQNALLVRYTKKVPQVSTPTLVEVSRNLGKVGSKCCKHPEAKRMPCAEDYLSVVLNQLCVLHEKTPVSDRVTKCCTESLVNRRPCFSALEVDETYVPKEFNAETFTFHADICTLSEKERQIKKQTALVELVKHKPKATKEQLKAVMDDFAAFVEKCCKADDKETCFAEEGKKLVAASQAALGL
HSA-domain I-II construct: residues 25-403 of P02768
UniProt Q28522, residues 17-600: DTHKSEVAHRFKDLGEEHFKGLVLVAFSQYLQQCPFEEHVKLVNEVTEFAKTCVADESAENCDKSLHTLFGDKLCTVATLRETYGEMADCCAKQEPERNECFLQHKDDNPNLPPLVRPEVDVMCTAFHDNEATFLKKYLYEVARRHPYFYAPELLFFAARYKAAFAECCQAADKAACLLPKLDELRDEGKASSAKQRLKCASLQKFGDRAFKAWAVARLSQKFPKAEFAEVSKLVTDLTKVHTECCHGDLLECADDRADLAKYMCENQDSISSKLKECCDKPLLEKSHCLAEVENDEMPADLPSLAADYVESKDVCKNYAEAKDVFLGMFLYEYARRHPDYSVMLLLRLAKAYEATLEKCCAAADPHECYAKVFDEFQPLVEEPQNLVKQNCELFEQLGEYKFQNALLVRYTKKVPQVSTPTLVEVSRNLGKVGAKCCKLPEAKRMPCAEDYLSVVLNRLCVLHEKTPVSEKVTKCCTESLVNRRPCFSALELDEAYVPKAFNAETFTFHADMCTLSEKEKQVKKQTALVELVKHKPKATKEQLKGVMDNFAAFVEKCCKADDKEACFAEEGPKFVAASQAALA

Key:
human serum albumin = target: T1, human serum albumin (human, UniProt P02768 25-609); assay: Biacore, HSA or domain construct captured on chip
T1 construct: also called HSA

rhesus serum albumin = target: T2, rhesus serum albumin (rhesus, UniProt Q28522 17-600); assay: SPR, albumin captured on CM5 chip
T2 construct: also called RhSA

[1] = target: HSA-domain I-II construct (human) (UniProt P02768); assay: Biacore, HSA or domain construct captured on chip
[2] = target: HSA-domain I-II construct (human) (UniProt P02768); assay: Biacore with recombinant HSA fragments

B1: SABA4.1 (designed binder)
chain: MGVSDVPRDLEMVAATPTSLLISWEDDSYYSRYYRITYGETGGNSPVQEFTVPSDLYTATISGLKPGVDYTITVYAVTYDVTDLIMHEPISINYRTEIDKPSQHHHHHH
In the case of B1, the binding (human serum albumin) is reported as “binds” and the binding (rhesus serum albumin) is reported as “binds”.

B2: SABA2.1 (designed binder)
chain: MGVSDVPRDLEVVAATPTSLLISWPKYDKTGHYYRITYGETGGNSPVQEFTVPTRQTTATISGLKPGVDYTITVYAVSKDDYYPHEHRPISINYRTEIDKPSQHHHHHH
For B2, the binding [1] was “binds”.

B3: SABA1.1 (designed binder)
chain: MGVSDVPRDLEVVAATPTSLLISWHSYYEQNSYYRITYGETGGNSPVQEFTVPYSQTTATISGLKPGVDYTITVYAVYGSKYYYPISINYRTEIDKPSQHHHHHH
B3 was tested, and the binding [1] was “binds”.

B4: SABA1.2 (designed binder)
chain: MGVSDVPRDLEVVAATPTSLLISWHSYYEQNSYYRITYGETGGNSPVQEFTVPYSQTTATISGLKPGVDYTITVYAVYGSKYYYPISINYRTEIEDEDEDEDED
notes: core 1 with (ED)5 extension
With B4 the binding [2] was “binds”.
